Measured values as given in PMC3169550.

Sequences of proteins named here, by UniProt entry; tags and fusion partners are left off.
UniProt Q9WUN2: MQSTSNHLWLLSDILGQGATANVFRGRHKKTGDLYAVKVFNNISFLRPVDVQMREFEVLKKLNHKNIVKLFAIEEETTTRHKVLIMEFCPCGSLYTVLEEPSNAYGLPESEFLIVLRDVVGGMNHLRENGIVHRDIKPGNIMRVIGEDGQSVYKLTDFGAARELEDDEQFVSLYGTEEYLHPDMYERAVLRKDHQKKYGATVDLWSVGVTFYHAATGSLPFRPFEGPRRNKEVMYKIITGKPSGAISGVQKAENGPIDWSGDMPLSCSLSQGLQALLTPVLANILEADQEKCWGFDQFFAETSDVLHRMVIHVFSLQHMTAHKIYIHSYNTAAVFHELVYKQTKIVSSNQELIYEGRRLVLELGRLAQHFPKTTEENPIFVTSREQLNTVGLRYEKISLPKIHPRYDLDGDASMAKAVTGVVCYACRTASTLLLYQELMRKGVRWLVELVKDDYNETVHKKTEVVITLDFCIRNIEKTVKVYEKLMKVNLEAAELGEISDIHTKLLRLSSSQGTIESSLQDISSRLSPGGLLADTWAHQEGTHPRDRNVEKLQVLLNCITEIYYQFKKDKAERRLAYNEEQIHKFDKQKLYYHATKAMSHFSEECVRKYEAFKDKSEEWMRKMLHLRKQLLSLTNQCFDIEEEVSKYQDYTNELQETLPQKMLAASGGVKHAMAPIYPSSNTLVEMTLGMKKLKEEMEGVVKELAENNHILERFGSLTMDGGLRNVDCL
UniProt A2A9T0: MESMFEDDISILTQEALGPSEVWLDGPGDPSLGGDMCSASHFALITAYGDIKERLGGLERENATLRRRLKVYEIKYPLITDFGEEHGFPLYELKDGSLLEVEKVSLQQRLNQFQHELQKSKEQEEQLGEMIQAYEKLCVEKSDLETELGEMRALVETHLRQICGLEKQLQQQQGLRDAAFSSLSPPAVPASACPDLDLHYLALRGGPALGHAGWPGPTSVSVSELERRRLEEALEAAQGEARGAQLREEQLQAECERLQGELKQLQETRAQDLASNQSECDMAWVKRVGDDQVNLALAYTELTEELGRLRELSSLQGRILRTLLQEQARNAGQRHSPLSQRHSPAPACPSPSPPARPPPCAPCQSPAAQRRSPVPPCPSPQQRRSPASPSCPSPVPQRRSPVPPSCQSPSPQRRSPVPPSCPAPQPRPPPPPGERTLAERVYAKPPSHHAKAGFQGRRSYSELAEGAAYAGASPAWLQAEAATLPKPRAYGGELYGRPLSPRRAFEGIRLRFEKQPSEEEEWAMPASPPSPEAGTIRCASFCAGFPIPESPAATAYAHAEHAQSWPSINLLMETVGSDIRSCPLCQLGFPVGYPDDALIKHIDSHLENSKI
UniProt Q62210: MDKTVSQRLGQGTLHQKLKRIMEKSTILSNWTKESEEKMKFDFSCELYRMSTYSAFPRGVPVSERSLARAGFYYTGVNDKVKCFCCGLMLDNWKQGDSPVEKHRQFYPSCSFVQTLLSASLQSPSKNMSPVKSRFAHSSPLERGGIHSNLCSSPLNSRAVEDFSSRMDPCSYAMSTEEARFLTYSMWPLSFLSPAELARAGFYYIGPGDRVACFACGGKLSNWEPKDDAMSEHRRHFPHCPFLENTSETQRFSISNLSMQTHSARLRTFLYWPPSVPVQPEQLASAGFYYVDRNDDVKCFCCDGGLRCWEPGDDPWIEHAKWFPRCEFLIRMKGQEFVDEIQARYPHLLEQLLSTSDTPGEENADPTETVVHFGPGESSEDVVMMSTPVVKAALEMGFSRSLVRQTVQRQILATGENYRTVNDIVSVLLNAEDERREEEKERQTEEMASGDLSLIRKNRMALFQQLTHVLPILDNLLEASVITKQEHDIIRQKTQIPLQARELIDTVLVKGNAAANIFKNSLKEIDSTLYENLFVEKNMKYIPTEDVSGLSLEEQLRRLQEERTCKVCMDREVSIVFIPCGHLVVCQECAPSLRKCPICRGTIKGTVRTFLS
UniProt O08863: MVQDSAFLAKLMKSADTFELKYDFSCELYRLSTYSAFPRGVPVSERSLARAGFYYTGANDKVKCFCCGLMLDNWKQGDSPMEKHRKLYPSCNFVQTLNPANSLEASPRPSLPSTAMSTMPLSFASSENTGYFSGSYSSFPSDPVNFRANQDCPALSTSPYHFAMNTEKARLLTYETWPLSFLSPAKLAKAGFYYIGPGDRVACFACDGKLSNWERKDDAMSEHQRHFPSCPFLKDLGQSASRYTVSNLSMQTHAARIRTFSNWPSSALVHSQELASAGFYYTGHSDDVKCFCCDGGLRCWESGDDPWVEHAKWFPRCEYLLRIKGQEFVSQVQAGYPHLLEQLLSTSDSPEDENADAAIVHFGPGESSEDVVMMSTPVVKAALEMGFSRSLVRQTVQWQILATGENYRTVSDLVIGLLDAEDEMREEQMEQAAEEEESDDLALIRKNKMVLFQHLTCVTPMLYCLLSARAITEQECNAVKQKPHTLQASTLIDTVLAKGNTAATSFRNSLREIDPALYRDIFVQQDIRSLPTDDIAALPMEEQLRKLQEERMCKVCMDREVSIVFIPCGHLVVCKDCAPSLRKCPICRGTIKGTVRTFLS
UniProt O88522: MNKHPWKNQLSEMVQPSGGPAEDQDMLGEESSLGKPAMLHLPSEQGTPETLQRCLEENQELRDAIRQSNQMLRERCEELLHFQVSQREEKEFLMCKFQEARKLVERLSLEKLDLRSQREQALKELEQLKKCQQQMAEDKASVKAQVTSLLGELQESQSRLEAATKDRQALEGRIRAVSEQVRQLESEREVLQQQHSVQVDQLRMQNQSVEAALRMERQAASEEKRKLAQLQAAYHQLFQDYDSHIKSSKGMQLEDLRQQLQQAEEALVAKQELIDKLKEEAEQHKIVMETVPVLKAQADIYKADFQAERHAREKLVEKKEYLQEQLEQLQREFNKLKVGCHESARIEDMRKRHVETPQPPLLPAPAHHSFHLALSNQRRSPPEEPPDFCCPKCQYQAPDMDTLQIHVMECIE
UniProt Q60803: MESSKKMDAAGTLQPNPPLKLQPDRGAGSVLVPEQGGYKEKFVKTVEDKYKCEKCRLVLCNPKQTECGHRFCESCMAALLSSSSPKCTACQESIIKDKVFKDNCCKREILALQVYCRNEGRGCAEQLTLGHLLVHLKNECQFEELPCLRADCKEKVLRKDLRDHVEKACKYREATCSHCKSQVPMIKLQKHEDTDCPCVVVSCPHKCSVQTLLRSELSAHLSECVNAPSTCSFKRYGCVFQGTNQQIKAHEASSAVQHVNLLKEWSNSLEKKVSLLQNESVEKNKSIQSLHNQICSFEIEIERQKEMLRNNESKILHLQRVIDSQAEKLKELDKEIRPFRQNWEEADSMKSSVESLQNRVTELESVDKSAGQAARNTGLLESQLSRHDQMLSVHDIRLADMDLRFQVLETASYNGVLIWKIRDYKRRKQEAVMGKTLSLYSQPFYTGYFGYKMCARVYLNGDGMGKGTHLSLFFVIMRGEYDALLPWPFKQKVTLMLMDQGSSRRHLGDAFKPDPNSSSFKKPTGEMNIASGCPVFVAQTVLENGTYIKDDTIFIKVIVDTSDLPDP
UniProt O88351: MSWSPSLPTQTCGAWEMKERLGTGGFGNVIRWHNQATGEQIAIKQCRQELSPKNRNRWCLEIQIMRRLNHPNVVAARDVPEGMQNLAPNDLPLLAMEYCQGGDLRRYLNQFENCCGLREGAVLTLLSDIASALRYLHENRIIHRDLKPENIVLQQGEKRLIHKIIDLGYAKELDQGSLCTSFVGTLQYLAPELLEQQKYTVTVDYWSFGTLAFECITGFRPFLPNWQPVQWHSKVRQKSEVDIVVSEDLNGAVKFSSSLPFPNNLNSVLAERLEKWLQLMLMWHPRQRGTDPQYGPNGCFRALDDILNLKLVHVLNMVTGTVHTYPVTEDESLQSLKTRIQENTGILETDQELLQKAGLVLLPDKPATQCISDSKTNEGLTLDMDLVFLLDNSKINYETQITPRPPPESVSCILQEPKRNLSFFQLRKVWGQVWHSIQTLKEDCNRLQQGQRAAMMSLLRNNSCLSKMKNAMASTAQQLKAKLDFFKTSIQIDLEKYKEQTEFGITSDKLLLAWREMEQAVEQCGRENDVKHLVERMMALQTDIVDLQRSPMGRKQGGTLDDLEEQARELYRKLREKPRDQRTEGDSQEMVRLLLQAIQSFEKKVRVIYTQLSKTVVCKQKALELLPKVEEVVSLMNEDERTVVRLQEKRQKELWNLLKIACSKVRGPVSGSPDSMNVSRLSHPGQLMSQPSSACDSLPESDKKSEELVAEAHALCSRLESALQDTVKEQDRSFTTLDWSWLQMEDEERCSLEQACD

How the values were obtained:
Test in all cases: affinity purification with mass spectrometry; tandem affinity purification of GS-TAP-tagged baits stably expressed in RAW264.7 cells (about 2x10^9 cells); eluates analysed by LC-MS on an LTQ Orbitrap XL; specificity filtered against 150 purifications of unrelated baits
[1] = molecular target: T1, TANK (mouse (endogenous in RAW264.7)) (UniProt P70347)
T1 sequence: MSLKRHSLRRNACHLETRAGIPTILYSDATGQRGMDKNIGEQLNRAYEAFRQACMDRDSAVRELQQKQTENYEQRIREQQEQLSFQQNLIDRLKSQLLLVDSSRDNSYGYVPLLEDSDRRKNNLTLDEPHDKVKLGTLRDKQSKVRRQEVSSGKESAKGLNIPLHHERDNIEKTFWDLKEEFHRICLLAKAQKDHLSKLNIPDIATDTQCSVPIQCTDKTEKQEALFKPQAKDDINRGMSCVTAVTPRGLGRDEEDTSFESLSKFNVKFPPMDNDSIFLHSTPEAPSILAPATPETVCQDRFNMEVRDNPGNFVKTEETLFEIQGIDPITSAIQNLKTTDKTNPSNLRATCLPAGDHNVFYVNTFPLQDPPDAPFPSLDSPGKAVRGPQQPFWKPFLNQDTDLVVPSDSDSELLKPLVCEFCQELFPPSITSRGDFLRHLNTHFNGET

[2] = molecular target: T2, inducible IκB-kinase (IKK-i) (mouse (endogenous in RAW264.7)) (UniProt Q9R0T8)
T2 sequence: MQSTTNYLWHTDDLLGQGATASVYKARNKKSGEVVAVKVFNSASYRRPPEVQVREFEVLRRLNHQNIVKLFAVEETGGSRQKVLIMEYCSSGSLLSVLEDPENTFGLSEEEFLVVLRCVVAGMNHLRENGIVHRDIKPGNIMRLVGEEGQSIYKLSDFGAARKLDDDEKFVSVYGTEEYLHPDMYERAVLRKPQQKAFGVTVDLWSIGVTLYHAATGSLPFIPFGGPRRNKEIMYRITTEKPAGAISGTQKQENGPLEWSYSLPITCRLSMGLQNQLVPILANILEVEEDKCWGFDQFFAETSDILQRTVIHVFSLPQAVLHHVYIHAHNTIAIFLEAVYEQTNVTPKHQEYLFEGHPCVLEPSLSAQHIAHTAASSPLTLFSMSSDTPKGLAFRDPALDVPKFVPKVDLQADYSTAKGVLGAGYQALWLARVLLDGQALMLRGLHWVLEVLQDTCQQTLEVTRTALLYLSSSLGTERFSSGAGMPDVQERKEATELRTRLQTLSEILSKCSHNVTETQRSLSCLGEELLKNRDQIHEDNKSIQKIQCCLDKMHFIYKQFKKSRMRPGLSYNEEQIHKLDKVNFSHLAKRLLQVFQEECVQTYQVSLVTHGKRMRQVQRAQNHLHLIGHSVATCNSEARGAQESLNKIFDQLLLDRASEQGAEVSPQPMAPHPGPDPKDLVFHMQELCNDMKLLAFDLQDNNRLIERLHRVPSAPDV

[3] = molecular target: TANK-binding kinase 1 (TBK1) (murine) (UniProt Q9WUN2)
[4] = molecular target: TANK-binding kinase 1 (TBK1) (murine) (UniProt Q9WUN2); remark: listed apart in the source
[5] = molecular target: Sintbad (TBKBP1) (mouse (endogenous in RAW264.7)) (UniProt A2A9T0)
[6] = molecular target: T2, inducible IκB-kinase (IKK-i) (mouse (endogenous in RAW264.7)); remark: listed apart in the source
[7] = molecular target: T1, TANK (mouse (endogenous in RAW264.7)); remark: listed apart in the source

“Sintbad (TBKBP1) (from UniProt A2A9T0 1-611)” was tested, and the binding [1] was “no binding” and the binding [2] was “binds”.

With “cIAP1 (from UniProt Q62210 1-612) (enzyme)” the binding [3] was “binds” and the binding [2] was “binds”.

“cIAP2 (from UniProt O08863 1-600) (enzyme)” was tested, and the binding [3] was “binds” and the binding [2] was “binds”.

For “AI607873 (mouse (endogenous in RAW264.7))”, the binding [2] was “binds”.

For “NEMO (IKK-γ) (from UniProt O88522 1-412)”, the binding [1] was “binds”.

For TRAF3 (from UniProt Q60803 1-567), the binding [3] was “binds”.

For “IKK-β (from UniProt O88351 1-757) (enzyme)”, the binding [1] was “binds”.

B1: TANK (protein, UniProt P70347 1-448)
chain: MSLKRHSLRRNACHLETRAGIPTILYSDATGQRGMDKNIGEQLNRAYEAFRQACMDRDSAVRELQQKQTENYEQRIREQQEQLSFQQNLIDRLKSQLLLVDSSRDNSYGYVPLLEDSDRRKNNLTLDEPHDKVKLGTLRDKQSKVRRQEVSSGKESAKGLNIPLHHERDNIEKTFWDLKEEFHRICLLAKAQKDHLSKLNIPDIATDTQCSVPIQCTDKTEKQEALFKPQAKDDINRGMSCVTAVTPRGLGRDEEDTSFESLSKFNVKFPPMDNDSIFLHSTPEAPSILAPATPETVCQDRFNMEVRDNPGNFVKTEETLFEIQGIDPITSAIQNLKTTDKTNPSNLRATCLPAGDHNVFYVNTFPLQDPPDAPFPSLDSPGKAVRGPQQPFWKPFLNQDTDLVVPSDSDSELLKPLVCEFCQELFPPSITSRGDFLRHLNTHFNGET
In the case of B1, the binding [4] is reported as “binds”, the binding [5] is reported as “no binding” and the binding [6] is reported as “binds”.

B2: IKK-α (enzyme, UniProt Q60680 1-745)
chain: MERPPGLRPGAGGPWEMRERLGTGGFGNVSLYQHRELDLKIAIKSCRLELSSKNRERWCHEIQIMKKLDHANVVKACDVPEELNFLINDVPLLAMEYCSGGDLRKLLNKPENCCGLKESQILSLLSDIGSGIRYLHENKIIHRDLKPENIVLQDVGGKTIHKIIDLGYAKDVDQGSLCTSFVGTLQYLAPELFENKPYTATVDYWSFGTMVFECIAGYRPFLHHLQPFTWHEKIKKKDPKCIFACEEMTGEVRFSSHLPQPNSLCSLIVEPMESWLQLMLNWDPQQRGGPIDLTLKQPRCFALMDHILNLKIVHILNMTSAKIISFLLPCDESLHSLQSRIERETGINTGSQELLSETGISLDPRKPASQCVLDGVRGCDSYMVYLFDKSKTVYEGPFASRSLSDCVNYIVQDSKIQLPIIQLRKVWAEAVHYVSGLKEDYSRLFQGQRAAMLSLLRYNANLTKMKNTLISASQQLKAKLEFFRKSIQLDLERYSEQMTYGISSEKMLKAWKEMEEKAIHYSEVGVIGYLEDQIMSLHTEIMELQKSPYGRRQGDLMESLEQRAIDLYKQLKHRPPDHLYSDSTEMVKIIVHTVQSQDRVLKELFGHLSKLLGCKQKIIDLLPKVEVALSNIKEADNTVMFMQGKRQKEIWHLLKIACTQSSARSLVGSSLEGTVTPPVSAWLPPTLADREHPLTCVVTPQDGETLAQMIEENLNCLGHLSTIIREANEDQSSSLMSLDWSWLAE
In the case of B2, the binding [7] is reported as “binds”.

B3: TRAF1 (protein, UniProt P39428 1-409)
chain: MASSSAPDENEFQFGCPPAPCQDPSEPRVLCCTACLSENLRDDEDRICPKCRADNLHPVSPGSPLTQEKVHSDVAEAEIMCPFAGVGCSFKGSPQSMQEHEATSQSSHLYLLLAVLKEWKSSPGSNLGSAPMALERNLSELQLQAAVEATGDLEVDCYRAPCCESQEELALQHLVKEKLLAQLEEKLRVFANIVAVLNKEVEASHLALAASIHQSQLDREHILSLEQRVVELQQTLAQKDQVLGKLEHSLRLMEEASFDGTFLWKITNVTKRCHESVCGRTVSLFSPAFYTAKYGYKLCLRLYLNGDGSGKKTHLSLFIVIMRGEYDALLPWPFRNKVTFMLLDQNNREHAIDAFRPDLSSASFQRPQSETNVASGCPLFFPLSKLQSPKHAYVKDDTMFLKCIVDTSA
B3 was tested, and the binding [4] was “binds” and the binding [6] was “binds”.

B4: TRAF2 (protein, UniProt P39429 1-501)
chain: MAAASVTSPGSLELLQPGFSKTLLGTRLEAKYLCSACKNILRRPFQAQCGHRYCSFCLTSILSSGPQNCAACVYEGLYEEGISILESSSAFPDNAARREVESLPAVCPNDGCTWKGTLKEYESCHEGLCPFLLTECPACKGLVRLSEKEHHTEQECPKRSLSCQHCRAPCSHVDLEVHYEVCPKFPLTCDGCGKKKIPRETFQDHVRACSKCRVLCRFHTVGCSEMVETENLQDHELQRLREHLALLLSSFLEAQASPGTLNQVGPELLQRCQILEQKIATFENIVCVLNREVERVAVTAEACSRQHRLDQDKIEALSNKVQQLERSIGLKDLAMADLEQKVSELEVSTYDGVFIWKISDFTRKRQEAVAGRTPAIFSPAFYTSRYGYKMCLRVYLNGDGTGRGTHLSLFFVVMKGPNDALLQWPFNQKVTLMLLDHNNREHVIDAFRPDVTSSSFQRPVSDMNIASGCPLFCPVSKMEAKNSYVRDDAIFIKAIVDLTGL
With B4 the binding [4] was “binds” and the binding [6] was “binds”.

Read-outs that look alike come from different tables or passages of the source. These are yes or no findings as the source states them, for the method shown. In cells and extracts the contact can be indirect. These calls come from enrichment with a bait or labelling near it, and not all partners need be listed. For part of these data: A no says only that the protein was not detected with the bait.
